Measured values reported in US20150128304A1.
No constants are given. Whether binding was seen depends on the method and setting. Some entries that bind do so weakly or less than the wild type. Where a sequence is shown, tags or fusion partners need not be part of it.

Amino acid sequences for entries named in this document (tags omitted). A change or cut given only in a name is not applied to a line headed by its entry.
UniProt P04386: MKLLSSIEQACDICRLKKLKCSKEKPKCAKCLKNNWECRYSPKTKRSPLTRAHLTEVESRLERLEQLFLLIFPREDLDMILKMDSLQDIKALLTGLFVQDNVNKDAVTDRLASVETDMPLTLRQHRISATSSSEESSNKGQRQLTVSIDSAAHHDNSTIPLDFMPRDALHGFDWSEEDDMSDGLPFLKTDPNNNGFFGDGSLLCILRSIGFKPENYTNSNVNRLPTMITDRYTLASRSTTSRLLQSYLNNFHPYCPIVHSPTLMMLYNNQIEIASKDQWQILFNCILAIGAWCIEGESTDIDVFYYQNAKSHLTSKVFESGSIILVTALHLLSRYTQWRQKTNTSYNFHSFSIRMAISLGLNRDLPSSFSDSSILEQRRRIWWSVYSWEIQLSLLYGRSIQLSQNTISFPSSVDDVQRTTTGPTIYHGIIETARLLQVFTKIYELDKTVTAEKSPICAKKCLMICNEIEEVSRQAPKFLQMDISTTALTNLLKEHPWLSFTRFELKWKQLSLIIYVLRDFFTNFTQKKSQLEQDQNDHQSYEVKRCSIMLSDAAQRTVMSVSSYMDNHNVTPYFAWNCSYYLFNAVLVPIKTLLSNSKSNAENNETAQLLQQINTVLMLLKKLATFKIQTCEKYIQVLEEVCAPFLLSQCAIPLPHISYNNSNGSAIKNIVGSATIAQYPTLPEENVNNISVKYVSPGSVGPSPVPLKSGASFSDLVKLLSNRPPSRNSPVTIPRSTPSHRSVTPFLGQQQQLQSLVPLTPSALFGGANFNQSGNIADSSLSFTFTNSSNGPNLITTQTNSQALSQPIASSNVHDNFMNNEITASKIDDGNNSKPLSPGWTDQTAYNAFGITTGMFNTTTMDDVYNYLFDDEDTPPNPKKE
UniProt O82132: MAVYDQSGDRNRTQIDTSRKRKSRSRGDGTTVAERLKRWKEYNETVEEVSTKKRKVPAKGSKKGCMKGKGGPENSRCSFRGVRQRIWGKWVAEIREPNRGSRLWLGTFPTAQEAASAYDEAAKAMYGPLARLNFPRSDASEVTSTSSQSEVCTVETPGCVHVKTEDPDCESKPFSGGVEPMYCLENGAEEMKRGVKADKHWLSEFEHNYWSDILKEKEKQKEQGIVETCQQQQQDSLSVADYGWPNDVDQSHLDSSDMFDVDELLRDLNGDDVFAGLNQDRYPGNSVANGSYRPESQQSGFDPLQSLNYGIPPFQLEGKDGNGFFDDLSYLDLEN
UniProt Q5W6R4: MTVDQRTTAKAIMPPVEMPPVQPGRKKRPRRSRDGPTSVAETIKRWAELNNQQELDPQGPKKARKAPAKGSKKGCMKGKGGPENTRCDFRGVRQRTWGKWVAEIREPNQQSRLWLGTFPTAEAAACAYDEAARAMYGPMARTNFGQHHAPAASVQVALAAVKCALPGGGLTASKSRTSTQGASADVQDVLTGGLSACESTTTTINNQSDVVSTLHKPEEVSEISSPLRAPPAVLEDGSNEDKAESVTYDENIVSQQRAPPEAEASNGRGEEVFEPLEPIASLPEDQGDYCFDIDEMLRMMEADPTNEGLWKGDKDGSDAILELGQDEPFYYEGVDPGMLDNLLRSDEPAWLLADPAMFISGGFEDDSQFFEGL

Tests used:
[1] = biological target: T1, DREB2A (1-205 a.a.), region excluding the C-terminal transcriptional activation domain, fused to the DNA-binding domain of pGBKT7 (yeast two-hybrid bait) (Arabidopsis thaliana) (UniProt P04386+O82132); assay: yeast two-hybrid in AH109, growth on QDO medium
[2] = biological target: T2, Oryza sativa OsDREB2B2 (1-146 a.a.) fused to the DNA-binding domain of pGBKT7 (yeast two-hybrid bait) (Oryza sativa) (UniProt P04386+Q5W6R4); assay: yeast two-hybrid in AH109, growth on QDO medium
[3] = biological target: T1, DREB2A (1-205 a.a.), region excluding the C-terminal transcriptional activation domain, fused to the DNA-binding domain of pGBKT7 (yeast two-hybrid bait) (Arabidopsis thaliana); assay: yeast two-hybrid, growth on QDO medium
[4] = biological target: T2, Oryza sativa OsDREB2B2 (1-146 a.a.) fused to the DNA-binding domain of pGBKT7 (yeast two-hybrid bait) (Oryza sativa); assay: yeast two-hybrid, growth on QDO medium
[5] = biological target: Oryza sativa OsDREB2B2 full-length fused to a YFP fragment (BiFC construct in pBI221) (Oryza sativa) (UniProt Q5W6R4); assay: BiFC (split YFP), transient expression in Arabidopsis protoplasts

Row | binding [1] | binding [2] | binding [3] | binding [4] | binding [5] | Binder
1 | binds | binds | binds | binds |  | Arabidopsis thaliana NF-YC10 full-length fused to the activation domain of pGADT7 (yeast two-hybrid prey) (protein, not shown: large carriers) MVSSKKPKEKKARSDVVVNKASGRSKRSSGSRTKKTSNKVNIVKKKPEIYEISESSSSDSVEEAIRGDEAKKSNGVVSKRGNGKSVGIPTKTSKNREEDDGGAEDAKIKFPMNRIRRIMRSDNSAPQIMQDAVFLVNKATEMFIERFSEEAYDSSVKDKKKFIHYKHLSSVVSNDQRYEFLADSVPEKLKAEAALEEWERGMTDAG
2 |  |  |  |  | binds | Arabidopsis thaliana NF-YC10 full-length fused to a YFP fragment (BiFC construct in pBI221) (protein, not shown: large carriers) MVSSKKPKEKKARSDVVVNKASGRSKRSSGSRTKKTSNKVNIVKKKPEIYEISESSSSDSVEEAIRGDEAKKSNGVVSKRGNGKSVGIPTKTSKNREEDDGGAEDAKIKFPMNRIRRIMRSDNSAPQIMQDAVFLVNKATEMFIERFSEEAYDSSVKDKKKFIHYKHLSSVVSNDQRYEFLADSVPEKLKAEAALEEWERGMTDAG
